Results on 1 molecule are retold here after BindingDB's records for doi:10.1126/science.279.5347.77 (Abbott Laboratories, 1998).

Amino acid sequences for entries named in this document (tags omitted). A change or cut given only in a name is not applied to a line headed by its entry.
UniProt P09483: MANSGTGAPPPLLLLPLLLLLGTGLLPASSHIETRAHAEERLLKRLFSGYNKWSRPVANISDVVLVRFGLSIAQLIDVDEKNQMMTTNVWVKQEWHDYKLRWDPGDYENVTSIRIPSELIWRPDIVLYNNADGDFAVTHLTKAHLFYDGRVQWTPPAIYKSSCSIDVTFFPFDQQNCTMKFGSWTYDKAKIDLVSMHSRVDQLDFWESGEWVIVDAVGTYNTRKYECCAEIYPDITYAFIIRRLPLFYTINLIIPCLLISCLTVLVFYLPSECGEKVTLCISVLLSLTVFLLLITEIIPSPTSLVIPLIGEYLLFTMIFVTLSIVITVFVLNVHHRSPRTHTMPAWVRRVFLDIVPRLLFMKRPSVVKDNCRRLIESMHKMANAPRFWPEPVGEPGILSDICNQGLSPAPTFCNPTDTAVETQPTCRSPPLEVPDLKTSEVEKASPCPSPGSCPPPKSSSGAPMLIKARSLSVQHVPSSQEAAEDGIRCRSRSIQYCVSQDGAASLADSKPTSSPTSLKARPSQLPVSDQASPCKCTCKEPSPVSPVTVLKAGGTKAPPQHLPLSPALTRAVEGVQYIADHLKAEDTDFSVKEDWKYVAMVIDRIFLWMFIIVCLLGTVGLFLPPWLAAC

The test addresses Neuronal acetylcholine receptor subunit alpha-4 (Rattus norvegicus, UniProt P09483).

Where only a bound is given, the exact number is not on record here.

As for `CN1CC[C@]23c4c5ccc(O)c4O[C@H]2[C@@H](O)C=C[C@H]3[C@H]1C5`, the Ki was over 10 µM.
